# Test results: the supplement of paper PMC10032668
# By UniProt entry, the sequences of proteins in these tests, tags left out.
# ECPAS, Q5VYK3, UniProt Q5VYK3, whole entry: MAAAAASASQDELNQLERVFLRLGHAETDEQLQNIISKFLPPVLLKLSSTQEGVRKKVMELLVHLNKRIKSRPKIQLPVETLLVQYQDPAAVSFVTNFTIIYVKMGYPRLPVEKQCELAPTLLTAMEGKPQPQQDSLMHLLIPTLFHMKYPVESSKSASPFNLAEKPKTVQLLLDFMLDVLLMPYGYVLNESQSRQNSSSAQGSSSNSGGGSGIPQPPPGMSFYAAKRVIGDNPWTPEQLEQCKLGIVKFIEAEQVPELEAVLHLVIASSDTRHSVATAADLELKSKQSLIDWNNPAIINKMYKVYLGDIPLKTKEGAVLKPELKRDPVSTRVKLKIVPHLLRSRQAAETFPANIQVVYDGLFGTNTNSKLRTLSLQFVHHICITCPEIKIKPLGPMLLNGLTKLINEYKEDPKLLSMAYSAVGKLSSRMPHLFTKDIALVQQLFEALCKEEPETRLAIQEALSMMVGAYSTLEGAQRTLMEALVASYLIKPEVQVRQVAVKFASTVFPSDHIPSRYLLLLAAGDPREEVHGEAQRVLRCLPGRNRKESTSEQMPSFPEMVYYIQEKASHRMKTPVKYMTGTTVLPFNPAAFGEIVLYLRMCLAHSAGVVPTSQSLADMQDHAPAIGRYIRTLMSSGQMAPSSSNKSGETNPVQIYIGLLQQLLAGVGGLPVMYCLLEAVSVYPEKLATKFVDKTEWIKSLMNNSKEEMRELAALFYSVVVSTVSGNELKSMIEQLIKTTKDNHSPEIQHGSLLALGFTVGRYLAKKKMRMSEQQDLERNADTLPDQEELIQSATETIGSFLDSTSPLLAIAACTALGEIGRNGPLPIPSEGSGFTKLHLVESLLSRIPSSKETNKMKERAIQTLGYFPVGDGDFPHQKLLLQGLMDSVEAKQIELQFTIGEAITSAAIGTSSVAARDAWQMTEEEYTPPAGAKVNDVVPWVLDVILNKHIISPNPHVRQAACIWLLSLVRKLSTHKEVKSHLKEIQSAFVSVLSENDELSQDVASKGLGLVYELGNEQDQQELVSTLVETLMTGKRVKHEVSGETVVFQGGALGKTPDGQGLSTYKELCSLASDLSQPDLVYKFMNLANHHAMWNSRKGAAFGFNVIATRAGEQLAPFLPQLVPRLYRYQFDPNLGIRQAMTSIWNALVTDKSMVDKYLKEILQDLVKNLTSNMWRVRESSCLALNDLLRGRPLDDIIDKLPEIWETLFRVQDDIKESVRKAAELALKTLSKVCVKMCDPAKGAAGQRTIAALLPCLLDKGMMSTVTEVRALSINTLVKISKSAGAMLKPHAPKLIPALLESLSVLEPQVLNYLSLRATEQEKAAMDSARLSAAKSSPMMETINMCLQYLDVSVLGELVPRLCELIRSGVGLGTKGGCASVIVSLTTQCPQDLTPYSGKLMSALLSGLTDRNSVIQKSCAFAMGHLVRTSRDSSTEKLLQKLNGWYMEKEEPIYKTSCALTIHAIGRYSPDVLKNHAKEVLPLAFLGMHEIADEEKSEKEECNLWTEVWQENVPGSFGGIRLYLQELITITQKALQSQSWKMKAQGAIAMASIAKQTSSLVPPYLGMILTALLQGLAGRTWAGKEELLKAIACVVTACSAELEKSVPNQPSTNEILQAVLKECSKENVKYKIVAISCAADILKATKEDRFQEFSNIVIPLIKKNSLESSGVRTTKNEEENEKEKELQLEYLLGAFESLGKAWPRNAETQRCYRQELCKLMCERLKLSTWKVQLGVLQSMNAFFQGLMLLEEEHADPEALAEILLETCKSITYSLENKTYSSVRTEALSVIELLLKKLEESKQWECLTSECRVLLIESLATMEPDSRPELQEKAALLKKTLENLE
# EIF2B1, Q14232, UniProt Q14232, whole entry: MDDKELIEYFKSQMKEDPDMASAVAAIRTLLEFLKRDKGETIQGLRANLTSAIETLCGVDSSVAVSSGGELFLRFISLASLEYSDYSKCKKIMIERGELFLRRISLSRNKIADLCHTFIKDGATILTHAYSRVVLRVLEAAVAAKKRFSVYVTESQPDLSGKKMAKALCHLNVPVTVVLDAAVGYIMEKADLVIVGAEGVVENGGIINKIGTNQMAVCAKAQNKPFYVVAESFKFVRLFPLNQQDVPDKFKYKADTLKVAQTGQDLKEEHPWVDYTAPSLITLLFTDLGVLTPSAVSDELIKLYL
# EIF4B, P23588, UniProt P23588, whole entry: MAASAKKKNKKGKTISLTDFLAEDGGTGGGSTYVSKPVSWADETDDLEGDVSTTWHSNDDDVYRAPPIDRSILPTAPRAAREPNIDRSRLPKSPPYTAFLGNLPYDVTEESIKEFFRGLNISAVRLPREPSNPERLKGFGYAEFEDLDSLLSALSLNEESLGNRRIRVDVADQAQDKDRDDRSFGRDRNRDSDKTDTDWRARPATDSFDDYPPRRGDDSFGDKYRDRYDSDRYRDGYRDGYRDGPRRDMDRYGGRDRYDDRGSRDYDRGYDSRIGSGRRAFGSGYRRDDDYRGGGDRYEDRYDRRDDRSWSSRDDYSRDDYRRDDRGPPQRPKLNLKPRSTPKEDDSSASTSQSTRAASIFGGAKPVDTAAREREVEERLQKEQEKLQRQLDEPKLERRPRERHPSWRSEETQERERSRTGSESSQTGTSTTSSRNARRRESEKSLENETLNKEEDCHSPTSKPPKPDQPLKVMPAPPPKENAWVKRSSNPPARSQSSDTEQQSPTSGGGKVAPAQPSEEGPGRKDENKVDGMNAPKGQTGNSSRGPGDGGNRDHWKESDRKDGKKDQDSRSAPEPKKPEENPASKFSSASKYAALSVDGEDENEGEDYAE
# GRWD1, Q9BQ67, UniProt Q9BQ67, whole entry: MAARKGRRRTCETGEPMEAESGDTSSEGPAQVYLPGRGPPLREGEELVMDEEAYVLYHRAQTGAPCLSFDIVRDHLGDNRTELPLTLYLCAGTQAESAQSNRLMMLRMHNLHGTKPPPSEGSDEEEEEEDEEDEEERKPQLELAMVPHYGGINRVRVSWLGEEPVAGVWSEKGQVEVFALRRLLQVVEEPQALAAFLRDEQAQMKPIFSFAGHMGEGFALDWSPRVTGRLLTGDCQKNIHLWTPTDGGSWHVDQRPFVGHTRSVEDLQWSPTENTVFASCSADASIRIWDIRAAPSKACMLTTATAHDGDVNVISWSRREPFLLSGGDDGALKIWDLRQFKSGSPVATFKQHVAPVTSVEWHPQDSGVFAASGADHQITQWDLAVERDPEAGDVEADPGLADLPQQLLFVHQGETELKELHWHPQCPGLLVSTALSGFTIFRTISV
# NCAPH, Q15003, UniProt Q15003, whole entry: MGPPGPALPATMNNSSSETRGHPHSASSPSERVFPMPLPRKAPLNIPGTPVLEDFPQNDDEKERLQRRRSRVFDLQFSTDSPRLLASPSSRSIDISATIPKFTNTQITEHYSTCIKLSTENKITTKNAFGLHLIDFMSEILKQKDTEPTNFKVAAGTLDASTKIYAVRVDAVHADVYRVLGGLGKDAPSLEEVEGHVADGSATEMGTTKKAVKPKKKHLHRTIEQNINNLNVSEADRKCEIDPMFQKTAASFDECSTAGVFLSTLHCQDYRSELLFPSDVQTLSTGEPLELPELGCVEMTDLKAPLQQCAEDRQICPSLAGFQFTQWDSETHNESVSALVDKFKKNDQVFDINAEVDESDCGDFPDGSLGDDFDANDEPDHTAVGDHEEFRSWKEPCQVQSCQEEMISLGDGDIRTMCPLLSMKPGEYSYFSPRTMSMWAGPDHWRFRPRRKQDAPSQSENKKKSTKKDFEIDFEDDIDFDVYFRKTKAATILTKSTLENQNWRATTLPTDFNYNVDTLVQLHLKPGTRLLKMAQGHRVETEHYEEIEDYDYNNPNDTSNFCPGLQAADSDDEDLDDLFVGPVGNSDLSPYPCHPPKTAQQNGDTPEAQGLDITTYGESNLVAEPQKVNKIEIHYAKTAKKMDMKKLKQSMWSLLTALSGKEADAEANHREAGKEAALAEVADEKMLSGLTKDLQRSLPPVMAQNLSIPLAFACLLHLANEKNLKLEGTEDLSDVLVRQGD
# NUDT21, O43809, UniProt O43809, whole entry: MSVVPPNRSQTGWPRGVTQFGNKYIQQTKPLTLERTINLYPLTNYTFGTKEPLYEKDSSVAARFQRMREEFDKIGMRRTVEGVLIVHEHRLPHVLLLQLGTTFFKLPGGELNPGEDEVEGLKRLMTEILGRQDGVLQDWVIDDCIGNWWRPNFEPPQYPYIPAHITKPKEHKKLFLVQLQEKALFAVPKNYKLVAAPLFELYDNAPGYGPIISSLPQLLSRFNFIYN
# TWF1, Q12792, UniProt Q12792, whole entry: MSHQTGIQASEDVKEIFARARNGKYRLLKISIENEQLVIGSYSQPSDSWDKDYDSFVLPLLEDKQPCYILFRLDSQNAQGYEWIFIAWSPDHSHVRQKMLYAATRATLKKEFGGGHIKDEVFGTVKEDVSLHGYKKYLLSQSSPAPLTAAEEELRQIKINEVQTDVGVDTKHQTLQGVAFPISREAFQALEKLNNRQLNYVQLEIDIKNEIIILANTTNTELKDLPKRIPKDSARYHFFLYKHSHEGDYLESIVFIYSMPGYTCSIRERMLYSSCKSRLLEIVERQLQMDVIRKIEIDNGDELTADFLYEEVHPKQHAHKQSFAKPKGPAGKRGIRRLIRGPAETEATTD
# EXOSC4, Q9NPD3, UniProt Q9NPD3, whole entry: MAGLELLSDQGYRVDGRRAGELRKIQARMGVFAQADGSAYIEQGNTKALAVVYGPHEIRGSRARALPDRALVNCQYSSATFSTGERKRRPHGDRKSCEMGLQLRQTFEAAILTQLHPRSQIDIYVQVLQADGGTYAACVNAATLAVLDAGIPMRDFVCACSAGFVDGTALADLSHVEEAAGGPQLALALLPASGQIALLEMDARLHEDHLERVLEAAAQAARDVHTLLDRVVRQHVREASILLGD
# MORF4L2, Q15014, UniProt Q15014, whole entry: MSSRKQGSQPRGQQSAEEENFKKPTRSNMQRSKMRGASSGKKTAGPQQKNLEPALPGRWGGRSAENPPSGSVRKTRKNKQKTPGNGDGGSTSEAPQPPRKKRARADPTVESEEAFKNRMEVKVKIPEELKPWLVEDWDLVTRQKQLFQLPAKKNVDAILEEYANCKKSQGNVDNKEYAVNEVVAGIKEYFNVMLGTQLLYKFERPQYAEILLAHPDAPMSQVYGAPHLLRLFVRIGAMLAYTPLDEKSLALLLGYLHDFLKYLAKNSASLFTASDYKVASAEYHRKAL
# The other results are listed elsewhere or left out. Only hits are listed; about a third recur on repeated control peptides.
# Key:
# Test in all cases: PRISMA enrichment of interactor (LFQ) in peptide spot vs all other peptide spots (log2 fold change); higher = stronger / more specific binding of the interactor to the peptide
# BZW1, Q7L1Q6 = target: BZW1, Q7L1Q6
# Experimental: (§1)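 PRISMA: 15-aa overlapping tiles (offset 8 aa) of 60 microproteins, plus SOS1/GLUT1 control peptides, were spot-synthesized on cellulose membranes in triplicate. Membranes were incubated with benzonase-treated HEK293T lysate, and bound proteins were identified by LC-MS/MS with LFQ. Enrichment is the log2 fold change of each protein in one spot versus all other spots. Only interactors passing the significance cutoff are listed.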
# CCAR1, Q8IX12 = target: CCAR1, Q8IX12
# Experimental: as §1
# CDC73, Q6P1J9 = target: CDC73, Q6P1J9
# Experimental: as §1
# CGN, Q9P2M7 = target: CGN, Q9P2M7
# Experimental: as §1
# CHMP2A, O43633 = target: CHMP2A, O43633
# Experimental: as §1
# COPG1, Q9Y678 = target: COPG1, Q9Y678
# Experimental: as §1
# CPS1, P31327 = target: CPS1, P31327
# Experimental: as §1
# DUSP9, Q99956 = target: DUSP9, Q99956
# Experimental: as §1
# ECD, O95905 = target: ECD, O95905
# Experimental: as §1
# ECPAS, Q5VYK3 = target: ECPAS, Q5VYK3
# Experimental: as §1
# EDC4, Q6P2E9 = target: EDC4, Q6P2E9
# Experimental: as §1
# EIF2B1, Q14232 = target: EIF2B1, Q14232
# Experimental: as §1
# EIF4B, P23588 = target: EIF4B, P23588
# Experimental: as §1
# ETFB, P38117 = target: ETFB, P38117
# Experimental: as §1
# FGF11, Q92914 = target: FGF11, Q92914
# Experimental: as §1
# FUBP1, Q96AE4 = target: FUBP1, Q96AE4
# Experimental: as §1
# GRWD1, Q9BQ67 = target: GRWD1, Q9BQ67
# Experimental: as §1
# HERC2, O95714 = target: HERC2, O95714
# Experimental: as §1
# KCNH1, O95259 = target: KCNH1, O95259
# Experimental: as §1
# KCTD12, Q96CX2 = target: KCTD12, Q96CX2
# Experimental: as §1
# LEO1, Q8WVC0 = target: LEO1, Q8WVC0
# Experimental: as §1
# MAGED2, Q9UNF1 = target: MAGED2, Q9UNF1
# Experimental: as §1
# MAP7D3, Q8IWC1 = target: MAP7D3, Q8IWC1
# Experimental: as §1
# NCAPH, Q15003 = target: NCAPH, Q15003
# Experimental: as §1
# NOP14, P78316 = target: NOP14, P78316
# Experimental: as §1
# NPHS1, O60500 = target: NPHS1, O60500
# Experimental: as §1
# NUDC, Q9Y266 = target: NUDC, Q9Y266
# Experimental: as §1
# NUDT21, O43809 = target: NUDT21, O43809
# Experimental: as §1
# PRDX3, P30048 = target: PRDX3, P30048
# Experimental: as §1
# PRPS2, P11908 = target: PRPS2, P11908
# Experimental: as §1
# PWP1, Q13610 = target: PWP1, Q13610
# Experimental: as §1
# RBM4, Q9BWF3 = target: RBM4, Q9BWF3
# Experimental: as §1
# RBM6, P78332 = target: RBM6, P78332
# Experimental: as §1
# RNF138, Q8WVD3 = target: RNF138, Q8WVD3
# Experimental: as §1
# RPUSD3, Q6P087 = target: RPUSD3, Q6P087
# Experimental: as §1
# [1] = substrate: SON, P18583
# Experimental: as §1
# TMEM201, Q5SNT2 = target: TMEM201, Q5SNT2
# Experimental: as §1
# TWF1, Q12792 = target: TWF1, Q12792
# Experimental: as §1
# VCL, P18206 = target: VCL, P18206
# Experimental: as §1
# WDR11, Q9BZH6 = target: WDR11, Q9BZH6
# Experimental: as §1
# C11orf98, E9PRG8 = target: C11orf98, E9PRG8
# Experimental: as §1
# C19orf53, Q9UNZ5 = target: C19orf53, Q9UNZ5
# Experimental: as §1
# CHTOP, Q9Y3Y2 = target: CHTOP, Q9Y3Y2
# Experimental: as §1
# CLTA, P09496 = target: CLTA, P09496
# Experimental: as §1
# CLTB, P09497 = target: CLTB, P09497
# Experimental: as §1
# CLTC, Q00610 = target: CLTC, Q00610
# Experimental: as §1
# CLTCL1, P53675 = target: CLTCL1, P53675
# Experimental: as §1
# CSNK1A1, P48729 = target: CSNK1A1, P48729
# Experimental: as §1
# CXorf56, Q9H5V9 = target: CXorf56, Q9H5V9
# Experimental: as §1
# DECR1, Q16698 = target: DECR1, Q16698
# Experimental: as §1
# EMG1, Q92979 = target: EMG1, Q92979
# Experimental: as §1
# EXOSC4, Q9NPD3 = target: EXOSC4, Q9NPD3
# Experimental: as §1
# FAM83D, Q9H4H8 = target: FAM83D, Q9H4H8
# Experimental: as §1
# FOCAD, Q5VW36 = target: FOCAD, Q5VW36
# Experimental: as §1
# GABARAPL2, P60520 = target: GABARAPL2, P60520
# Experimental: as §1
# MAGEB2, O15479 = target: MAGEB2, O15479
# Experimental: as §1
# MORF4L2, Q15014 = target: MORF4L2, Q15014
# Experimental: as §1
# MRPL27, Q9P0M9 = target: MRPL27, Q9P0M9
# Experimental: as §1
# MRPL34, Q9BQ48 = target: MRPL34, Q9BQ48
# Experimental: as §1
# NOL9, Q5SY16 = target: NOL9, Q5SY16
# Experimental: as §1
# PLS3, P13797 = target: PLS3, P13797
# Experimental: as §1
# PYCR1, P32322 = target: PYCR1, P32322
# Experimental: as §1
# PYCR2, Q96C36 = target: PYCR2, Q96C36
# Experimental: as §1
# RPS19BP1, Q86WX3 = target: RPS19BP1, Q86WX3
# Experimental: as §1
# TFB2M, Q9H5Q4 = target: TFB2M, Q9H5Q4
# Experimental: as §1
# URB1, O60287 = target: URB1, O60287
# Experimental: as §1
binder,measurement,setting,value
MNALASLTVRTCDRF [PPP1R15A],PRISMA enrichment of interactor (log2),"BZW1, Q7L1Q6",7.65
same,PRISMA enrichment of interactor (log2),"CCAR1, Q8IX12",4.97
same,PRISMA enrichment of interactor (log2),"CDC73, Q6P1J9",5.78
same,PRISMA enrichment of interactor (log2),"CGN, Q9P2M7",5.19
same,PRISMA enrichment of interactor (log2),"CHMP2A, O43633",4.14
same,PRISMA enrichment of interactor (log2),"COPG1, Q9Y678",4.54
same,PRISMA enrichment of interactor (log2),"CPS1, P31327",5.66
same,PRISMA enrichment of interactor (log2),"DUSP9, Q99956",5.08
same,PRISMA enrichment of interactor (log2),"ECD, O95905",4.75
same,PRISMA enrichment of interactor (log2),"ECPAS, Q5VYK3",4.72
same,PRISMA enrichment of interactor (log2),"EDC4, Q6P2E9",6.78
same,PRISMA enrichment of interactor (log2),"EIF2B1, Q14232",4.55
same,PRISMA enrichment of interactor (log2),"EIF4B, P23588",4.64
same,PRISMA enrichment of interactor (log2),"ETFB, P38117",7.2
same,PRISMA enrichment of interactor (log2),"FGF11, Q92914",9.09
same,PRISMA enrichment of interactor (log2),"FUBP1, Q96AE4",7.64
same,PRISMA enrichment of interactor (log2),"GRWD1, Q9BQ67",4.76
same,PRISMA enrichment of interactor (log2),"HERC2, O95714",4.08
same,PRISMA enrichment of interactor (log2),"KCNH1, O95259",6.63
same,PRISMA enrichment of interactor (log2),"KCTD12, Q96CX2",3.94
same,PRISMA enrichment of interactor (log2),"LEO1, Q8WVC0",7.15
same,PRISMA enrichment of interactor (log2),"MAGED2, Q9UNF1",6.13
same,PRISMA enrichment of interactor (log2),"MAP7D3, Q8IWC1",4.94
same,PRISMA enrichment of interactor (log2),"NCAPH, Q15003",4.56
same,PRISMA enrichment of interactor (log2),"NOP14, P78316",4.58
same,PRISMA enrichment of interactor (log2),"NPHS1, O60500",6.32
same,PRISMA enrichment of interactor (log2),"NUDC, Q9Y266",4.42
same,PRISMA enrichment of interactor (log2),"NUDT21, O43809",7.9
same,PRISMA enrichment of interactor (log2),"PRDX3, P30048",5.48
same,PRISMA enrichment of interactor (log2),"PRPS2, P11908",4.12
same,PRISMA enrichment of interactor (log2),"PWP1, Q13610",4.68
same,PRISMA enrichment of interactor (log2),"RBM4, Q9BWF3",5.09
same,PRISMA enrichment of interactor (log2),"RBM6, P78332",5.16
same,PRISMA enrichment of interactor (log2),"RNF138, Q8WVD3",3.81
same,PRISMA enrichment of interactor (log2),"RPUSD3, Q6P087",7.87
same,PRISMA enrichment of interactor (log2),[1],6.37
same,PRISMA enrichment of interactor (log2),"TMEM201, Q5SNT2",3.96
same,PRISMA enrichment of interactor (log2),"TWF1, Q12792",4.67
same,PRISMA enrichment of interactor (log2),"VCL, P18206",4.11
same,PRISMA enrichment of interactor (log2),"WDR11, Q9BZH6",4.31
TPEELFHLLGADSQ [GLUT1_MUT_2],PRISMA enrichment of interactor (log2),"BZW1, Q7L1Q6",5.14
same,PRISMA enrichment of interactor (log2),"C11orf98, E9PRG8",4.79
same,PRISMA enrichment of interactor (log2),"C19orf53, Q9UNZ5",6.78
same,PRISMA enrichment of interactor (log2),"CHTOP, Q9Y3Y2",6.3
same,PRISMA enrichment of interactor (log2),"CLTA, P09496",6.65
same,PRISMA enrichment of interactor (log2),"CLTB, P09497",5.84
same,PRISMA enrichment of interactor (log2),"CLTC, Q00610",5.04
same,PRISMA enrichment of interactor (log2),"CLTCL1, P53675",3.91
same,PRISMA enrichment of interactor (log2),"CSNK1A1, P48729",5.13
same,PRISMA enrichment of interactor (log2),"CXorf56, Q9H5V9",4.69
same,PRISMA enrichment of interactor (log2),"DECR1, Q16698",5.66
same,PRISMA enrichment of interactor (log2),"EMG1, Q92979",4.88
same,PRISMA enrichment of interactor (log2),"EXOSC4, Q9NPD3",5.17
same,PRISMA enrichment of interactor (log2),"FAM83D, Q9H4H8",4.44
same,PRISMA enrichment of interactor (log2),"FOCAD, Q5VW36",4.38
same,PRISMA enrichment of interactor (log2),"GABARAPL2, P60520",5.38
same,PRISMA enrichment of interactor (log2),"MAGEB2, O15479",5.28
same,PRISMA enrichment of interactor (log2),"MORF4L2, Q15014",5.04
same,PRISMA enrichment of interactor (log2),"MRPL27, Q9P0M9",7.86
same,PRISMA enrichment of interactor (log2),"MRPL34, Q9BQ48",4.37
same,PRISMA enrichment of interactor (log2),"NCAPH, Q15003",4.73
same,PRISMA enrichment of interactor (log2),"NOL9, Q5SY16",4.22
same,PRISMA enrichment of interactor (log2),"PLS3, P13797",4.9
same,PRISMA enrichment of interactor (log2),"PYCR1, P32322",5.67
same,PRISMA enrichment of interactor (log2),"PYCR2, Q96C36",5.21
same,PRISMA enrichment of interactor (log2),"RPS19BP1, Q86WX3",4.76
same,PRISMA enrichment of interactor (log2),"TFB2M, Q9H5Q4",6.24
same,PRISMA enrichment of interactor (log2),"URB1, O60287",5.92

# Another view of part of the listing above:
binder	measurement	setting	value
MNALASLTVRTCDRF [PPP1R15A]	PRISMA enrichment of interactor (log2)	BZW1, Q7L1Q6	7.65
same	PRISMA enrichment of interactor (log2)	DUSP9, Q99956	5.08
same	PRISMA enrichment of interactor (log2)	EDC4, Q6P2E9	6.78
same	PRISMA enrichment of interactor (log2)	EIF2B1, Q14232	4.55
same	PRISMA enrichment of interactor (log2)	EIF4B, P23588	4.64
same	PRISMA enrichment of interactor (log2)	FGF11, Q92914	9.09
same	PRISMA enrichment of interactor (log2)	NCAPH, Q15003	4.56
same	PRISMA enrichment of interactor (log2)	NUDC, Q9Y266	4.42
same	PRISMA enrichment of interactor (log2)	PRPS2, P11908	4.12
same	PRISMA enrichment of interactor (log2)	RBM4, Q9BWF3	5.09
TPEELFHLLGADSQ [GLUT1_MUT_2]	PRISMA enrichment of interactor (log2)	C19orf53, Q9UNZ5	6.78
same	PRISMA enrichment of interactor (log2)	CLTB, P09497	5.84
same	PRISMA enrichment of interactor (log2)	CSNK1A1, P48729	5.13
same	PRISMA enrichment of interactor (log2)	CXorf56, Q9H5V9	4.69
same	PRISMA enrichment of interactor (log2)	EMG1, Q92979	4.88
same	PRISMA enrichment of interactor (log2)	EXOSC4, Q9NPD3	5.17
same	PRISMA enrichment of interactor (log2)	FAM83D, Q9H4H8	4.44
same	PRISMA enrichment of interactor (log2)	GABARAPL2, P60520	5.38
same	PRISMA enrichment of interactor (log2)	MRPL34, Q9BQ48	4.37
same	PRISMA enrichment of interactor (log2)	URB1, O60287	5.92
